Binding data for one substance are collected here from paper doi:10.1101/2020.01.05.895219.

Protein sequences, listed by entry. Tags and fused reporters are not part of them.
UniProt P02929: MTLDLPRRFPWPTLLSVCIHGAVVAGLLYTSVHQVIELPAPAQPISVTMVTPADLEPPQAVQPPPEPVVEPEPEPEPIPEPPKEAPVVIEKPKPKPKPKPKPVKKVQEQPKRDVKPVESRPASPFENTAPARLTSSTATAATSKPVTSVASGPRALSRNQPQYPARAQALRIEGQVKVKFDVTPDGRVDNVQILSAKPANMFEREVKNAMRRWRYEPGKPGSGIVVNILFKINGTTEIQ

No constants are given. Whether binding was seen depends on the method and setting. In cells and extracts the contact can be indirect. Some entries that bind do so weakly or less than the wild type.

The target of assay [1] is T1, ExbB (E. coli (endogenous in W3110)) (UniProt P0ABU7).
T1 sequence: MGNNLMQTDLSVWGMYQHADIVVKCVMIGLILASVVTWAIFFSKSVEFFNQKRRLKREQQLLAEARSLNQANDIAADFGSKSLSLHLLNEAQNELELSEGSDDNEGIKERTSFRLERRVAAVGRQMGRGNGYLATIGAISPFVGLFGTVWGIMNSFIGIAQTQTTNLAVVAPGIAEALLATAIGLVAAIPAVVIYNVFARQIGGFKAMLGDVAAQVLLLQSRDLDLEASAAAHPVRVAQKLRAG
The assay can be described thus: cross-linking.

In assay [2] the target is T2, LPP (Braun's lipoprotein) (E. coli (endogenous in W3110)) (UniProt P69776).
T2 sequence: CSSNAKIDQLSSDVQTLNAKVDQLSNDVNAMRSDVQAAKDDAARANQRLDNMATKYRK
Put plainly: cross-linking.

As to TonB (from UniProt P02929 1-239), the binding result in assay [1] and in assay [2] was “binds” each time.
